The text below walks through data of paper doi:10.1101/2025.07.31.668009.

No constants are given. Whether binding was seen depends on the method and setting. Binding calls can cover weak binding; strength is not graded here. Sequences can lack the tags named with a protein. For part of these data: Binding seen in cells or lysates may run through a third protein.

The target of assay [1] is T1, ERECTACD (cytoplasmic domain of ERECTA), BiFC fusion (Arabidopsis) (UniProt Q42371).
T1 sequence: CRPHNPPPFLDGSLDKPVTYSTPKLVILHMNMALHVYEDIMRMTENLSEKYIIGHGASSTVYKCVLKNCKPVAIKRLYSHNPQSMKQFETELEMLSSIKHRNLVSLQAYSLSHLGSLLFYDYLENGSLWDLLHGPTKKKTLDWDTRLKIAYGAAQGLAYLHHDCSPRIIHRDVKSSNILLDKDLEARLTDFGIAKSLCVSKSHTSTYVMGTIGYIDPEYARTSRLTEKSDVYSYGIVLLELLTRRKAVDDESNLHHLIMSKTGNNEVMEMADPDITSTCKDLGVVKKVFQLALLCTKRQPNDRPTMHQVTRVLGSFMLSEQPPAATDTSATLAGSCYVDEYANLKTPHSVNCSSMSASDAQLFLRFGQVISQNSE
The assay can be described thus: split reporter.

The target in assay [2] is T2, ERL1CD (cytoplasmic domain of ERECTA-LIKE 1), BiFC fusion (Arabidopsis) (UniProt C0LGW6).
T2 sequence: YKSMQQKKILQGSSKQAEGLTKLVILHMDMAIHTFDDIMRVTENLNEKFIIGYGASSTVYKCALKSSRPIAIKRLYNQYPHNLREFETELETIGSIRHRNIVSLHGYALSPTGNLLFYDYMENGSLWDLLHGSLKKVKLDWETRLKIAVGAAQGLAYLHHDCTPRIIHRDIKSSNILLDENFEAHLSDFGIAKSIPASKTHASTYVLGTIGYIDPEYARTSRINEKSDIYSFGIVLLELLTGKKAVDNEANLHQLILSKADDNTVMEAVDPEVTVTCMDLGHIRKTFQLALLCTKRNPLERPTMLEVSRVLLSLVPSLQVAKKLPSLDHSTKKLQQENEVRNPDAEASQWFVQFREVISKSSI
Kind of assay: split reporter.

For assay [3], the target named is T3, ERL2CD (cytoplasmic domain of ERL2), BiFC fusion (Arabidopsis) (UniProt Q6XAT2).
T3 sequence: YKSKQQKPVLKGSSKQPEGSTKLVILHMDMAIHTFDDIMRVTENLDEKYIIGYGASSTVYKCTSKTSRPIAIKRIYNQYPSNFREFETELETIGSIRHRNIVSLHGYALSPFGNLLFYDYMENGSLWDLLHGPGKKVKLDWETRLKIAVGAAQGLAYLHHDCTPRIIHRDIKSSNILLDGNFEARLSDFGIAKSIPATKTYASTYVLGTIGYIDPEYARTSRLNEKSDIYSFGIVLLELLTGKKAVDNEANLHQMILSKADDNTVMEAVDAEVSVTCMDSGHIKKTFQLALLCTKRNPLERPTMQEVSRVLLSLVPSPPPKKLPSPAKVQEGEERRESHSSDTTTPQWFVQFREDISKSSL
Kind of assay: split reporter.

For assay [4], the target named is T4, ERECTACD (cytoplasmic domain of ERECTA), yeast two-hybrid fusion (Arabidopsis) (UniProt Q42371).
T4 sequence: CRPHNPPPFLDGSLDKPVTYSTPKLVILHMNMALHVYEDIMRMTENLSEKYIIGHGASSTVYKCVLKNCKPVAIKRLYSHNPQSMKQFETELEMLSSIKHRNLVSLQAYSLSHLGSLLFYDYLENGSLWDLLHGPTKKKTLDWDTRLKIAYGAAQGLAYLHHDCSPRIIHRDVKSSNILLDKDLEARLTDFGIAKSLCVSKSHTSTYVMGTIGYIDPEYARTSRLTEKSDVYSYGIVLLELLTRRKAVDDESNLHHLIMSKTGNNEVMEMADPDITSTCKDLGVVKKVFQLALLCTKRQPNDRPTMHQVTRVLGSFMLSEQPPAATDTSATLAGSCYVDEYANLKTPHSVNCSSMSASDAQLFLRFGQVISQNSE
The assay can be described thus: two-hybrid.

The target in assay [5] is T5, ERL1CD (cytoplasmic domain of ERECTA-LIKE 1), yeast two-hybrid fusion (Arabidopsis) (UniProt C0LGW6).
T5 sequence: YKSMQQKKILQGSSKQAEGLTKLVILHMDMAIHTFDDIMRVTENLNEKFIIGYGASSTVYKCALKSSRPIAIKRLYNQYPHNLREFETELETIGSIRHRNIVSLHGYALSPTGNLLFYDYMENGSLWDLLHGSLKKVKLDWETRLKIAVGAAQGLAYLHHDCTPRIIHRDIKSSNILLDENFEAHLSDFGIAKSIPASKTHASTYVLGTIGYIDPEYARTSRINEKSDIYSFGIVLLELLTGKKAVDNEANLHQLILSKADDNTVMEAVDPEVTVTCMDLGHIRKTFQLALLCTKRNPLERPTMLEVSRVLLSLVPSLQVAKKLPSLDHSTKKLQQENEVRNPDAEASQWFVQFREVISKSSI
The assay can be described thus: two-hybrid.

Assay [6] addresses T6, ERL2CD (cytoplasmic domain of ERL2), yeast two-hybrid fusion (Arabidopsis) (UniProt Q6XAT2).
T6 sequence: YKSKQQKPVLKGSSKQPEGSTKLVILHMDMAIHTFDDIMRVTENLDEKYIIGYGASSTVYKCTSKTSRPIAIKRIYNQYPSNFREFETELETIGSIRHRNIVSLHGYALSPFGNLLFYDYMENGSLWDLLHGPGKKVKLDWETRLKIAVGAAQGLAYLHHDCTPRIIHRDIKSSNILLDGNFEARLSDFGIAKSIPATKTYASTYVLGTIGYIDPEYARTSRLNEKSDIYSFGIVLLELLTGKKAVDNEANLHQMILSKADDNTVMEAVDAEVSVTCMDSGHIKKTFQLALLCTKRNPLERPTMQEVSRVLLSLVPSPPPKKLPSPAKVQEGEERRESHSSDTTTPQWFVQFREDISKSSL
Kind of assay: two-hybrid.

Assay [7] deals with T7, ERECTACD-GFP (Arabidopsis) (UniProt Q42371).
T7 sequence: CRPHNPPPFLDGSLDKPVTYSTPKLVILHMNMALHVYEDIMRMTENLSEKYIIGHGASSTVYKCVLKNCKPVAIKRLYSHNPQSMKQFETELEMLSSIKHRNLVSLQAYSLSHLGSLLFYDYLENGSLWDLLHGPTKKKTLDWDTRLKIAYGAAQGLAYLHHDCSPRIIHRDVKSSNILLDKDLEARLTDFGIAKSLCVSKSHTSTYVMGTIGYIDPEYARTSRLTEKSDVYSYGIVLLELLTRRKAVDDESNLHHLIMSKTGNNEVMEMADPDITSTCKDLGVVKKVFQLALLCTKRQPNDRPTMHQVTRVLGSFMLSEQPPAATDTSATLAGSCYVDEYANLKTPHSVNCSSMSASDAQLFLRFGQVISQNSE
The assay can be described thus: co-IP.

The target in another assay is T8, ERL1CD-GFP (Arabidopsis) (UniProt C0LGW6).
T8 sequence: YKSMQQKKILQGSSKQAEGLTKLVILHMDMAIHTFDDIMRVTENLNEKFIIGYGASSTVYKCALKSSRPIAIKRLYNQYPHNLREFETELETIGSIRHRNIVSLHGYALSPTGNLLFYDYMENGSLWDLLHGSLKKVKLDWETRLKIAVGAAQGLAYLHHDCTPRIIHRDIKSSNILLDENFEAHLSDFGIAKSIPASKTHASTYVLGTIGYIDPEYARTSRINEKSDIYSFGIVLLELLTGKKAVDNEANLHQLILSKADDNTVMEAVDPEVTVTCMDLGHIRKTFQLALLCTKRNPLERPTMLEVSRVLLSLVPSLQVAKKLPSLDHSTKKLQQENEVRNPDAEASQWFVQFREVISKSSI
The assay can be described thus: co-IP.

The target of a further assay is T9, ERL2CD-GFP (Arabidopsis) (UniProt Q6XAT2).
T9 sequence: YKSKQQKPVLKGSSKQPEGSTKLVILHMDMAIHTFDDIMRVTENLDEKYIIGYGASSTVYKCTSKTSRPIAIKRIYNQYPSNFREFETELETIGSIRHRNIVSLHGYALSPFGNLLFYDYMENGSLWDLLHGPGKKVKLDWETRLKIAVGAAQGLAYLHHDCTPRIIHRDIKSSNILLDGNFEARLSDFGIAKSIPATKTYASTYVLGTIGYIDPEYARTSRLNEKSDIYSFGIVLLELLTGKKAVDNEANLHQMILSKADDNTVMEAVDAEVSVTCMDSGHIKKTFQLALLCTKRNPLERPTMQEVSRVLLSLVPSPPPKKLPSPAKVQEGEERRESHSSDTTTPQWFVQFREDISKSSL
Kind of assay: co-IP.

Another assay addresses AP2σ-MBP (Arabidopsis). Kind of assay: pull-down.

Turning to “AP2σ (adaptor protein 2 σ subunit), BiFC fusion (Arabidopsis)”, the binding result in assay [1], in assay [2] and in assay [3] was “binds” each time.

“AP2σ (adaptor protein 2 σ subunit), yeast two-hybrid fusion (Arabidopsis)”: the binding entry in assay [4], in assay [5] and in assay [6] was “binds” in each case.

As for AP2σ-RFP (Arabidopsis), the binding entry (in [7]; with ERL1CD-GFP (Arabidopsis); with ERL2CD-GFP (Arabidopsis)) was “binds” each time.

B1: ERL1CD-GST (domain or fragment, UniProt C0LGW6 604-966)
chain: YKSMQQKKILQGSSKQAEGLTKLVILHMDMAIHTFDDIMRVTENLNEKFIIGYGASSTVYKCALKSSRPIAIKRLYNQYPHNLREFETELETIGSIRHRNIVSLHGYALSPTGNLLFYDYMENGSLWDLLHGSLKKVKLDWETRLKIAVGAAQGLAYLHHDCTPRIIHRDIKSSNILLDENFEAHLSDFGIAKSIPASKTHASTYVLGTIGYIDPEYARTSRINEKSDIYSFGIVLLELLTGKKAVDNEANLHQLILSKADDNTVMEAVDPEVTVTCMDLGHIRKTFQLALLCTKRNPLERPTMLEVSRVLLSLVPSLQVAKKLPSLDHSTKKLQQENEVRNPDAEASQWFVQFREVISKSSI
Turning to B1, in the assay with AP2σ-MBP (Arabidopsis), the binding entry is recorded as “binds”.

B2: ERECTACD-GST (domain or fragment, UniProt Q42371 602-976)
chain: CRPHNPPPFLDGSLDKPVTYSTPKLVILHMNMALHVYEDIMRMTENLSEKYIIGHGASSTVYKCVLKNCKPVAIKRLYSHNPQSMKQFETELEMLSSIKHRNLVSLQAYSLSHLGSLLFYDYLENGSLWDLLHGPTKKKTLDWDTRLKIAYGAAQGLAYLHHDCSPRIIHRDVKSSNILLDKDLEARLTDFGIAKSLCVSKSHTSTYVMGTIGYIDPEYARTSRLTEKSDVYSYGIVLLELLTRRKAVDDESNLHHLIMSKTGNNEVMEMADPDITSTCKDLGVVKKVFQLALLCTKRQPNDRPTMHQVTRVLGSFMLSEQPPAATDTSATLAGSCYVDEYANLKTPHSVNCSSMSASDAQLFLRFGQVISQNSE
For the molecule B2, the binding entry with AP2σ-MBP (Arabidopsis) is recorded as “binds”.

B3: ERL2CD-GST (domain or fragment, UniProt Q6XAT2 607-967)
chain: YKSKQQKPVLKGSSKQPEGSTKLVILHMDMAIHTFDDIMRVTENLDEKYIIGYGASSTVYKCTSKTSRPIAIKRIYNQYPSNFREFETELETIGSIRHRNIVSLHGYALSPFGNLLFYDYMENGSLWDLLHGPGKKVKLDWETRLKIAVGAAQGLAYLHHDCTPRIIHRDIKSSNILLDGNFEARLSDFGIAKSIPATKTYASTYVLGTIGYIDPEYARTSRLNEKSDIYSFGIVLLELLTGKKAVDNEANLHQMILSKADDNTVMEAVDAEVSVTCMDSGHIKKTFQLALLCTKRNPLERPTMQEVSRVLLSLVPSPPPKKLPSPAKVQEGEERRESHSSDTTTPQWFVQFREDISKSSL
For B3, the binding result with AP2σ-MBP (Arabidopsis) is “binds”.
